These are yes or no findings as the source states them, for the method shown. In cells and extracts the contact can be indirect. Binding can be weak; no strength is given. Where a sequence is shown, tags or fusion partners need not be part of it.
Target: T1, T. brucei telomerase reverse transcriptase (TbTERT), FLAG-HA-HA tagged (Trypanosoma brucei) (UniProt Q383R0)
T1 sequence: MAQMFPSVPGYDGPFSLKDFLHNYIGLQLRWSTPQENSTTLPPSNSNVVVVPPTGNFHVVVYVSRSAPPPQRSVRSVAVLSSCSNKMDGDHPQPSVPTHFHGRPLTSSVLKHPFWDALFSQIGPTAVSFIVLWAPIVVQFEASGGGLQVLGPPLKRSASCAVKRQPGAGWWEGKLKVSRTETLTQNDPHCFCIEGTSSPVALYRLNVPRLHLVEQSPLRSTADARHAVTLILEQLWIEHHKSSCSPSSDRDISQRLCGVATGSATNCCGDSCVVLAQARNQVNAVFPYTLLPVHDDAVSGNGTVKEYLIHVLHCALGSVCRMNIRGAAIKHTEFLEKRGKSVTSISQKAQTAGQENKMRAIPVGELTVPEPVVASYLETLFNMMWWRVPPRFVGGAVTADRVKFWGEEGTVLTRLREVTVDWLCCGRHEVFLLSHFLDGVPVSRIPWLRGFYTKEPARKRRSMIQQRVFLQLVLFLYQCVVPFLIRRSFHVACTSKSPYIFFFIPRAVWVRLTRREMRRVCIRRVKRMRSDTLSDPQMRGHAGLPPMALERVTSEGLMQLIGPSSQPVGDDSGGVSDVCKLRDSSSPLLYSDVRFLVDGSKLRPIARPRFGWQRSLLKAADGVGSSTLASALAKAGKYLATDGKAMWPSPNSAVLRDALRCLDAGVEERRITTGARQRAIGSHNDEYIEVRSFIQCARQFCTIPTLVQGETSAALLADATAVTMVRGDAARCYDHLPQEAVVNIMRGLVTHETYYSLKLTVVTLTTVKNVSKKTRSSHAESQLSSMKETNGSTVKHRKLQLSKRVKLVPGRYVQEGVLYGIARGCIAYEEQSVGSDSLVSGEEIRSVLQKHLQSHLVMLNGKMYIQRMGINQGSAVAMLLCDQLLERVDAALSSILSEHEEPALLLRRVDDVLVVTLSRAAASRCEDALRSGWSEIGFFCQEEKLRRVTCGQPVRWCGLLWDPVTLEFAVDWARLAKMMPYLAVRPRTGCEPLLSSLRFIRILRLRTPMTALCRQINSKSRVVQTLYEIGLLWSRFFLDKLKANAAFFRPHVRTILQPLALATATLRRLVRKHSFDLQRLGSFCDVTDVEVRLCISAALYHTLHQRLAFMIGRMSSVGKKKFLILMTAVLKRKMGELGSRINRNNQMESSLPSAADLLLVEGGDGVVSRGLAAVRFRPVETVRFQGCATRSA
Assay: co-IP; WT BF T. brucei cell lysate; IP antibody anti-TbTERT C terminus; western blot with anti-FLAG and anti-NOP58

Sequences of proteins named here, by UniProt entry; tags and fusion partners are left off. A change or cut given only in a name is not applied to a line headed by its entry.
UniProt Q38F23: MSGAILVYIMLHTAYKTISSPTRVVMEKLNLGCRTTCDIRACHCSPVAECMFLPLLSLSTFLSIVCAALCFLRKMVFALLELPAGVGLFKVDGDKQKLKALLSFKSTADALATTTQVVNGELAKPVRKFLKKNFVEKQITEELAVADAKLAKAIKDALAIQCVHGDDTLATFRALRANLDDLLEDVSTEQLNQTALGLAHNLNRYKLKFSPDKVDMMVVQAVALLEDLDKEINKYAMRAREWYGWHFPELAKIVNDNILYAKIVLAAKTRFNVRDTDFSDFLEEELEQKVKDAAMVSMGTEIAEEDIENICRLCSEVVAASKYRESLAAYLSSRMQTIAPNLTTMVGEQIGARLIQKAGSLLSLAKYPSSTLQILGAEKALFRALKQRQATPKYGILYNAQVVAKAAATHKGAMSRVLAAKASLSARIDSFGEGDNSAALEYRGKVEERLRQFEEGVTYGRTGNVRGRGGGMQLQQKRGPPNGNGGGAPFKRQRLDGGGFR

## Nucleolar protein 58 (NOP58) (from UniProt Q38F23)
  binding: binds
